# Measured values from PubChem BioAssay AID1347423 (Functional Genomics Laboratory (NCATS/FGL), 2020).
# About 210 (0.4%) of roughly 52,000 sequences were called active.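 How the source made its calls: active means gene whose silencing raises cell survival under the drug, median off-target-corrected z-score across its silencing RNAs 2 or more; inactive means the rest.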 The list shows a part of the results.
# Test: Resistance to Poly (ADP-Ribose) Polymerase inhibitor: Gene Identification via Genome-wide siRNA Screen
# Conditions: mouse BRCA2 R2336H ES cells, olaparib, CellTiter-Glo viability; active compounds read high
# Procedure, shortened: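 Mouse BRCA2 R2336H ES cells were reverse-transfected with siRNA (20 nM final), treated at 48 h with 500 nM olaparib, and read by CellTiter-Glo after 72 h. Scores: MAD-based z per siRNA, median per gene, seed off-target correction.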
row,Sequence,z-score
1,GGGACAGAUACAGUUCAUGTT against Zan,inactive: -1.39
2,CCAUAUUGAGGAAAAAUCCTT against 2810426N06Rik,inactive: -0.214
3,CGGGAUAGACUAUAAGACUTT against Rab40c,inactive: 0.0159
4,GGUUUUCACCAUGCAUCAGTT against 4933412H03Rik,inactive: 1.8
5,GGGCUAAAGCCUUCAACACTT against Olfr923,inactive: 0.197
6,GCAGAAGAAACAGCUGUCUTT against 1110007F12Rik,inactive: 0.0357
7,GCUUGUGGUAAAUGAGGAGTT against 1700024G13Rik,inactive: 0.774
8,CCUACGACCUGAAGAUAGCTT against 2600005O03Rik,inactive: -1.46
9,GGGAAUCUCUGUAUGUUGUTT against Letm1,inactive: 0.995
10,GCAAGAAGUAUUUUCAGUATT against Galnt4,inactive: -0.243
11,GGAAACAGAGCAAGGAAAATT against Gas7,inactive: -0.882
12,GGAGACCAAAAAGAAAUAATT against Cmas,inactive: 0.448
13,CGGAGGAAGGCAAGAUGUATT against Tead4,inactive: -0.398
14,CGAGCUUUCACUGCUACAGTT against Ppargc1b,inactive: 1.03
15,GGAAUUAAAUGCCAGUACGTT against Ankfy1,inactive: 0.511
16,GGUAAUUUAAUGACACAUGTT against A130079P16Rik,inactive: 0.374
17,GGAAAUUUCAUGAACCCUCTT against Aadat,inactive: 0.434
18,GCCCAAGGUGAAUCUGUCATT against Tusc5,inactive: -0.381
19,GGUGAGGAACUUCUGGAAUTT against Klra5,inactive: -0.161
20,GCUAAGGACACAAAAUCCATT against 1810073N04Rik,inactive: 0.378
21,GGACAUCAUUCAUGACCCUTT against Rpl8,inactive: -3.05
22,GGAGUUGGUACCUUUCCGATT against Thap4,inactive: -0.883
23,CGGAAUGAUCACGACCGAUTT against AI851076,inactive: -0.772
24,GGCUUCAAGGACUUUACAATT against Mefv,inactive: 0.895
25,GGUUCUAUAGGGCUCCGAATT against 1810059G22Rik,inactive: 0.878
26,GGAUUUCUGACCAUUGAGCTT against Mrgprf,inactive: 0.341

row,Sequence,z-score
1,GGUAAUUGCCAUAGAAAAUTT against 1600014E20Rik,inactive: -0.496
2,GGAAAGAACAACAAAGGAGTT against Snx9,inactive: 0.254
3,GCCAUAACCGACUACGAGATT against 9530051K01Rik,inactive: 0.0604
4,CCUUGAGAUUUUUAUAAGCTT against Stx5a,inactive: 1.82
5,CCAGUCACUGACAAUAAGATT against Kcnj1,inactive: 0.115
6,CGACUAUAUGCAGAAGUACTT against Cdc27,inactive: -2.97
7,GGUAAUAUAUGACUCCAGCTT against 2310042G06Rik,inactive: -0.65
8,GCUCACUAUGUAAAGAGAATT against Itpk1,inactive: -0.284
9,GGUUUUCAAAGAUCUCUAGTT against Efnb2,inactive: -0.183
10,CCUGGGUUGGAUAAAACUUTT against 6030458C11Rik,inactive: -0.521
11,GGACGAUGGAAUUAUGAGGTT against 4921524P20Rik,inactive: 0.102
12,GGCAUGAUCAUAAUUGGAUTT against Mto1,inactive: 0.63
13,GGGCUUCAGUGAAGUUGUCTT against Cml3,inactive: -2.3
14,GGACAUAUUGGAAACAGAATT against 5033414D02Rik,inactive: 1.17
15,GGAUUGUGGUUGAACACAUTT against Tmem33,inactive: 0.924
16,GGGUAUGGUGACAGAUAAATT against Cpz,inactive: -0.169
17,GCUAGGAAUGCUGAACACUTT against Sh3gl3,inactive: -1.01
18,CGGUUGAAGAUUGAUUUUGTT against Gnai3,inactive: 0.75
19,GGUCCAUGCUCUCAUGAGUTT against 4933430F08Rik,inactive: 0.00145
20,GGGAAUCGAGAAAAUGGAUTT against Prkg2,inactive: 0.316
21,GGAGAUGCCCAAUGUUUUCTT against Ehd1,inactive: -0.27
22,CCCAUCUCGAAUGAAAGCCTT against Clecsf1,inactive: -0.646
23,GCUUCCUCAAUUACUAUGCTT against Apbb2,inactive: 0.176
24,GGCUAAAGGAGAACAACAUTT against Bub3,inactive: -0.585
25,GCCUUGGCAUUAUAUAUGGTT against Prom1,inactive: 0.663
26,GGGCUUCGAUGCUAUCAUCTT against 6430573F11Rik,inactive: 0.734

row,Sequence,z-score
1,GCAUUGGCAUGAUGGACCATT against Slc39a1,inactive: 1.02
2,GCCACAUGCUUCAAUAGUGTT against Gluld1,inactive: 0.506
3,GCGCAAACAACACAUCGUCTT against Ccpg1,inactive: -0.273
4,CCUUCCAGUAGUAAUUCAUTT against Hod,inactive: 1.04
5,GGUCGCUAUUAAGAUCAUUTT against Mark4,inactive: -1.39
6,CUGGUUUUUAGUCUUUCAUTT against 4930471G03Rik,inactive: 1.24
7,GGACAACUUUGAGGAGAUGTT against Tubg2,inactive: -0.53
8,CCCAUAACAUUGGUGAUUATT against V1rf2,inactive: 1.48
9,GACAAAACAAUUACCUACATT against Olfr806,inactive: 0.0971
10,GCGAAAUUCGAGUUCGGUUTT against Col17a1,inactive: 0.111
11,GGAGCUUUUUAUGUUUUAGTT against 1700047I17Rik,inactive: 0.887
12,GGAUUUCACUUGAGAAUGATT against Grem1,inactive: -1.06
13,GGACAUUCCCAAAGAAAAUTT against Usp29,inactive: -0.101
14,GCCAAGCAUUACCAUACUUTT against Rab21,inactive: 0.582
15,GGACCACCGUGAUCAACAUTT against Ifitm2,inactive: -1.33
16,GGACAAUGGGAGCUAUCGATT against Gpld1,inactive: -0.373
17,GCGUAAAACUUCAAGAGCUTT against DXImx50e,inactive: 0.219
18,CCGAGGUGAUUAGGAUAACTT against Traf3ip1,inactive: -0.813
19,GGGACAUUCCUUAUCAUAATT against Pde3a,inactive: 0.174
20,GGCUGGACACUGAGAAAAATT against Adcy4,inactive: -0.919
21,GGGCAGAAGCUGUGAAAUCTT against BC037034,inactive: 0.422
22,AACUAUGUCUGCUAUGUCATT against Ela2,inactive: 0.739
23,CCCUUAUCUCAUGUGUUAATT against Olfr74,inactive: 0.979
24,GGUUCAGGUUCUUCUAAAATT against Cd109,inactive: 0.632
25,GGAAAAUCAAUACAUUGGATT against Pxk,inactive: -0.042
26,CCUUUAGGUUACAAAAACCTT against Pdgfd,inactive: 0.39

row,Sequence,z-score
1,GCCUGUACAUGACGGAAAGTT against Bag4,inactive: -0.395
2,GGCUUAGAUCUACUAUUUCTT against Fv4,inactive: 0.902
3,CCUCGAAACUCAUUUCCAGTT against Prkch,inactive: -0.403
4,CCAGCACUCGAAAAAGAUGTT against Pdzk8,inactive: 0.548
5,GGAGUUAGAUGCCCUCAAGTT against 1810073E21Rik,inactive: -0.0814
6,GGUUUUCCAAAAAACACCCTT against 1700084J12Rik,inactive: 0.919
7,GGCAACUGACUAGCUGAUUTT against Atp2a1,inactive: 1.29
8,GGAUCCUCACAAUAAACUUTT against Sult2b1,inactive: -0.204
9,GGUAAAUGUCUAGAAAUGGTT against Abcd2,inactive: 0.484
10,GGGAAUUUGGGCAUGAUCATT against Olfr44,inactive: -3.04
11,GGCGAGAAUUUCAUCGGGATT against Tulp1,inactive: 0.635
12,GGAGAAGAUUUUCUGUAUCTT against C630015F21Rik,inactive: -0.509
13,CGUCAACUCUACUGGACCATT against Grp,inactive: 1.46
14,CCAAAGGUGACCACAGAUUTT against 6230401O10Rik,inactive: 0.0847
15,GGGAAGAACAUCUCUGCUCTT against S100a3,inactive: -1.37
16,GGACAUGCUUAUCCUUUGUTT against Slc38a5,inactive: -0.0803
17,GGGUGAAAUUUUUAAUCGGTT against Lbp,inactive: 0.477
18,GGAUCCUUCGGGUCUUAAATT against Kctd9,inactive: -1.18
19,GGAUGAUUCCAAGAUGCUATT against Lin28b,inactive: -0.268
20,GGAUGAAAGUCCUGGACAGTT against Gli3,inactive: -0.309
21,GCUUAUAAAAGUGAAUCGGTT against 1190006E07Rik,inactive: -0.353
22,GGUCUUCCAAGGUCAGAAGTT against Cyp2d10,inactive: -0.139
23,GCAGCCUCGUUUAACUAAATT against 1700034P14Rik,inactive: -0.967
24,GCUACCGUGGGCGAUGUAATT against Dbi,inactive: -2.69
25,CCACACCUAUCUUCUACGUTT against C730026E21Rik,inactive: 0.164
26,CCUUUGUGGAAUACGUCAUTT against Fa2h,inactive: 0.0687

# Reformatted: entries from further up.
row	Sequence	z-score
4	CCUUCCAGUAGUAAUUCAUTT against Hod	inactive: 1.04
5	GGUCGCUAUUAAGAUCAUUTT against Mark4	inactive: -1.39
6	CUGGUUUUUAGUCUUUCAUTT against 4930471G03Rik	inactive: 1.24
7	GGACAACUUUGAGGAGAUGTT against Tubg2	inactive: -0.53
8	CCCAUAACAUUGGUGAUUATT against V1rf2	inactive: 1.48
9	GACAAAACAAUUACCUACATT against Olfr806	inactive: 0.0971
10	GCGAAAUUCGAGUUCGGUUTT against Col17a1	inactive: 0.111
11	GGAGCUUUUUAUGUUUUAGTT against 1700047I17Rik	inactive: 0.887
12	GGAUUUCACUUGAGAAUGATT against Grem1	inactive: -1.06
13	GGACAUUCCCAAAGAAAAUTT against Usp29	inactive: -0.101
14	GCCAAGCAUUACCAUACUUTT against Rab21	inactive: 0.582
15	GGACCACCGUGAUCAACAUTT against Ifitm2	inactive: -1.33
16	GGACAAUGGGAGCUAUCGATT against Gpld1	inactive: -0.373
17	GCGUAAAACUUCAAGAGCUTT against DXImx50e	inactive: 0.219
18	CCGAGGUGAUUAGGAUAACTT against Traf3ip1	inactive: -0.813
19	GGGACAUUCCUUAUCAUAATT against Pde3a	inactive: 0.174
20	GGCUGGACACUGAGAAAAATT against Adcy4	inactive: -0.919
21	GGGCAGAAGCUGUGAAAUCTT against BC037034	inactive: 0.422
22	AACUAUGUCUGCUAUGUCATT against Ela2	inactive: 0.739
23	CCCUUAUCUCAUGUGUUAATT against Olfr74	inactive: 0.979
24	GGUUCAGGUUCUUCUAAAATT against Cd109	inactive: 0.632
25	GGAAAAUCAAUACAUUGGATT against Pxk	inactive: -0.042
26	CCUUUAGGUUACAAAAACCTT against Pdgfd	inactive: 0.39
1	GCCUGUACAUGACGGAAAGTT against Bag4	inactive: -0.395
2	GGCUUAGAUCUACUAUUUCTT against Fv4	inactive: 0.902
3	CCUCGAAACUCAUUUCCAGTT against Prkch	inactive: -0.403
4	CCAGCACUCGAAAAAGAUGTT against Pdzk8	inactive: 0.548
5	GGAGUUAGAUGCCCUCAAGTT against 1810073E21Rik	inactive: -0.0814
6	GGUUUUCCAAAAAACACCCTT against 1700084J12Rik	inactive: 0.919
7	GGCAACUGACUAGCUGAUUTT against Atp2a1	inactive: 1.29
8	GGAUCCUCACAAUAAACUUTT against Sult2b1	inactive: -0.204
